From the supplement of paper PMC8728848
The list shows a part of the results.

How the values were obtained:
Test in all cases: glycan array binding signal (z-score within array); higher = stronger binding
Details in all cases: glycan notation: IUPAC condensed, linker removed
[1] = biological target: Neu5Ac(a2-6)Gal(b1-4)GlcNAc(b1-2)Man(a1-3)[Neu5Ac(a2-3)Gal(b1-4)GlcNAc(b1-2)Man(a1-6)]Man(b1-4)GlcNAc(b1-4)GlcNAc
Outline: (§1)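 The binding signal is a Z-score computed within each array. Data were drawn from 3228 arrays in the Consortium for Functional Glycomics database, restricted to those with a known protein sequence. Scores were averaged over arrays of the same protein sequence at different concentrations or buffers, and over linkers, and negative values can be taken as non-binding.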

[2] = biological target: Neu5Ac(a2-6)Gal(b1-4)GlcNAc(b1-2)Man(a1-3)[Neu5Ac(a2-6)Gal(b1-4)GlcNAc(b1-2)Man(a1-6)]Man(b1-4)GlcNAc(b1-4)GlcNAc
Outline: as §1

[3] = biological target: Neu5Ac(a2-6)Gal(b1-4)GlcNAc(b1-2)Man(a1-3)[Neu5Ac(a2-6)Gal(b1-4)GlcNAc(b1-2)Man(a1-6)]Man(b1-4)GlcNAc(b1-4)[Fuc(a1-6)]GlcNAc
Outline: as §1

[4] = biological target: Neu5Ac(a2-6)Gal(b1-4)GlcNAc(b1-2)Man(a1-6)Man(b1-4)GlcNAc(b1-4)GlcNAc
Outline: as §1

[5] = biological target: Neu5Ac(a2-6)Gal(b1-4)GlcNAc(b1-2)Man(a1-6)[Gal(b1-4)GlcNAc(b1-2)Man(a1-3)]Man(b1-4)GlcNAc(b1-4)GlcNAc
Outline: as §1

[6] = biological target: Neu5Ac(a2-6)Gal(b1-4)GlcNAc(b1-2)Man(a1-6)[GlcNAc(b1-2)Man(a1-3)]Man(b1-4)GlcNAc(b1-4)GlcNAc
Outline: as §1

[7] = biological target: Neu5Ac(a2-6)Gal(b1-4)GlcNAc(b1-2)Man(a1-6)[Man(a1-3)]Man(b1-4)GlcNAc(b1-4)GlcNAc
Outline: as §1

[8] = biological target: Neu5Ac(a2-6)Gal(b1-4)GlcNAc(b1-2)[Neu5Ac(a2-6)Gal(b1-4)GlcNAc(b1-4)]Man(a1-3)[GlcNAc(b1-4)][Neu5Ac(a2-6)Gal(b1-4)GlcNAc(b1-2)[Neu5Ac(a2-6)Gal(b1-4)GlcNAc(b1-6)]Man(a1-6)]Man(b1-4)GlcNAc(b1-4)GlcNAc
Outline: as §1

[9] = biological target: Neu5Ac(a2-6)Gal(b1-4)GlcNAc(b1-2)[Neu5Ac(a2-6)Gal(b1-4)GlcNAc(b1-4)]Man(a1-3)[GlcNAc(b1-4)][Neu5Ac(a2-6)Gal(b1-4)GlcNAc(b1-4)Man(a1-6)]Man(b1-4)GlcNAc(b1-4)GlcNAc
Outline: as §1

[10] = biological target: Neu5Ac(a2-6)Gal(b1-4)GlcNAc(b1-2)[Neu5Ac(a2-6)Gal(b1-4)GlcNAc(b1-6)]Man(a1-6)[Neu5Ac(a2-6)Gal(b1-4)GlcNAc(b1-2)Man(a1-3)][GlcNAc(b1-4)]Man(b1-4)GlcNAc(b1-4)GlcNAc
Outline: as §1

[11] = biological target: Neu5Ac(a2-6)Gal(b1-4)GlcNAc(b1-3)Gal(b1-3)GlcNAc
Outline: as §1

[12] = biological target: Neu5Ac(a2-6)Gal(b1-4)GlcNAc(b1-3)Gal(b1-4)GlcNAc
Outline: as §1

[13] = biological target: Neu5Ac(a2-6)Gal(b1-4)GlcNAc(b1-3)Gal(b1-4)GlcNAc(b1-2)Man(a1-3)[Neu5Ac(a2-6)Gal(b1-4)GlcNAc(b1-3)Gal(b1-4)GlcNAc(b1-2)Man(a1-6)]GalNAc
Outline: as §1

[14] = biological target: Neu5Ac(a2-6)Gal(b1-4)GlcNAc(b1-3)Gal(b1-4)GlcNAc(b1-3)Gal(b1-4)GlcNAc
Outline: as §1

[15] = biological target: Neu5Ac(a2-6)Gal(b1-4)GlcNAc(b1-3)Gal(b1-4)GlcNAc(b1-3)Gal(b1-4)GlcNAc(b1-2)Man(a1-3)[Neu5Ac(a2-6)Gal(b1-4)GlcNAc(b1-3)Gal(b1-4)GlcNAc(b1-3)Gal(b1-4)GlcNAc(b1-2)Man(a1-6)]GalNAc
Outline: as §1

[16] = biological target: Neu5Ac(a2-6)Gal(b1-4)GlcNAc(b1-3)Gal(b1-4)GlcNAc(b1-3)GalNAc
Outline: as §1

[17] = biological target: Neu5Ac(a2-6)Gal(b1-4)GlcNAc(b1-3)Gal(b1-4)GlcNAc(b1-3)[Neu5Ac(a2-6)Gal(b1-4)GlcNAc(b1-3)Gal(b1-4)GlcNAc(b1-6)]GalNAc
Outline: as §1

[18] = biological target: Neu5Ac(a2-6)Gal(b1-4)GlcNAc(b1-3)Gal(b1-4)GlcNAc(b1-6)[Gal(b1-3)]GalNAc
Outline: as §1

[19] = biological target: Neu5Ac(a2-6)Gal(b1-4)GlcNAc(b1-3)Gal(b1-4)[Fuc(a1-3)]GlcNAc(b1-3)Gal(b1-4)[Fuc(a1-3)]GlcNAc
Outline: as §1

[20] = biological target: Neu5Ac(a2-6)Gal(b1-4)GlcNAc(b1-3)GalNAc
Outline: as §1

[21] = biological target: Neu5Ac(a2-6)Gal(b1-4)GlcNAc(b1-3)[Neu5Ac(a2-6)Gal(b1-4)GlcNAc(b1-6)]GalNAc
Outline: as §1

[22] = biological target: Neu5Ac(a2-6)Gal(b1-4)GlcNAc(b1-6)GalNAc
Outline: as §1

[23] = biological target: Neu5Ac(a2-6)Gal(b1-4)GlcNAc(b1-6)[Gal(b1-3)GlcNAc(b1-3)]Gal(b1-4)Glc
Outline: as §1

[24] = biological target: Neu5Ac(a2-6)Gal(b1-4)GlcNAc(b1-6)[Gal(b1-3)]GalNAc
Outline: as §1

[25] = biological target: Neu5Ac(a2-6)Gal(b1-4)GlcNAc6S
Outline: as §1

[26] = biological target: Neu5Ac(a2-6)GalNAc
Outline: as §1

[27] = biological target: Neu5Ac(a2-6)GalNAc(b1-4)GlcNAc
Outline: as §1

[28] = biological target: Neu5Ac(a2-6)GalNAc(b1-4)GlcNAc6S
Outline: as §1

[29] = biological target: Neu5Ac(a2-6)GlcNAc(b1-4)GlcNAc
Outline: as §1

[30] = biological target: Neu5Ac(a2-6)GlcNAc(b1-4)GlcNAc(b1-4)GlcNAc
Outline: as §1

B1: PX9961M-bvu-482-23-482 (Bacteroides vulgatus) (protein)
chain: WLDLAPSTQVDTETSINVLSDIEFTLNGIYSTMQSSDAYSGRLVYYGDVTGDDMQAVSSTKRTGNYYRFNFTKDNGPSSHWSYLYSIIQNCNLILMNVDKLSIDEDETEYKNDLKGQALAIRGMALFDLTRIFGYPYLKDNGASLGVPIVKELSTIDSKPARNTVAECYTEIISDLKNSTELLSGDFNKGKVNRWAAMTLLSRVYLYKGEYNEALTMAENAIKGAEKEGYALWTNEEYPTAWGNDASASNPGEILFEIVNLTTDSPGKESMGYLNSYNGYDDMCITCSFYQLLKKDPKDVRLKILSFDKKYYAYVNKYQPQQGENITDANIPLIRLSEAYLNAAEAAVQTGDNAKAVKYLNSIVQRANPENSVEGKTLTLENVLDERRKELVAEGHRMYDVIRNGMTVKRIDVKDSDINKTKHNTAYMEYDWNFHKILLPIPKKEMDANPNMKQNPGYVD
- glycan array binding signal (z-score) [1]: 0.515
- glycan array binding signal (z-score) [2]: 0.173
- glycan array binding signal (z-score) [3]: 0.138
- glycan array binding signal (z-score) [4]: 0.132
- glycan array binding signal (z-score) [5]: -0.934
- glycan array binding signal (z-score) [6]: -0.701
- glycan array binding signal (z-score) [7]: 0.152
- glycan array binding signal (z-score) [8]: -0.028
- glycan array binding signal (z-score) [9]: 0.169
- glycan array binding signal (z-score) [10]: 0.004
- glycan array binding signal (z-score) [11]: -0.073
- glycan array binding signal (z-score) [12]: -0.225
- glycan array binding signal (z-score) [13]: -0.284
- glycan array binding signal (z-score) [14]: 0.46
- glycan array binding signal (z-score) [15]: 1.07
- glycan array binding signal (z-score) [16]: 0.845
- glycan array binding signal (z-score) [17]: 0.09
- glycan array binding signal (z-score) [18]: -0.159
- glycan array binding signal (z-score) [19]: -0.366
- glycan array binding signal (z-score) [20]: -0.573
- glycan array binding signal (z-score) [21]: -0.911
- glycan array binding signal (z-score) [22]: -0.512
- glycan array binding signal (z-score) [23]: -0.342
- glycan array binding signal (z-score) [24]: 0.586
- glycan array binding signal (z-score) [25]: 0.831
- glycan array binding signal (z-score) [26]: -0.811
- glycan array binding signal (z-score) [27]: -0.659
- glycan array binding signal (z-score) [28]: -0.066
- glycan array binding signal (z-score) [29]: 0.077
- glycan array binding signal (z-score) [30]: -0.376
